About 210 (0.4%) of roughly 52,000 sequences were called active.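 The calls were made as follows: active = gene whose silencing raises cell survival under the drug, median off-target-corrected z-score across its silencing RNAs 2 or more; inactive = the rest.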 This is one part of the list.

A short description of this experiment: Resistance to Poly (ADP-Ribose) Polymerase inhibitor: Gene Identification via Genome-wide siRNA Screen. As to conditions: mouse BRCA2 R2336H ES cells, olaparib, CellTiter-Glo viability; active compounds read high. The gist of the method:
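Mouse BRCA2 R2336H ES cells were reverse-transfected with siRNA (20 nM final), treated at 48 h with 500 nM olaparib, and read by CellTiter-Glo after 72 h. Scores: MAD-based z per siRNA, median per gene, seed off-target correction.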
For the sequence CGAAGGCUUUUGAAUUCAATT against Gm78, the z-score was inactive: 1.03.

As to “CCUCACCUAUGGUACUUUCTT against MGI:3576664”, the z-score was inactive: -0.323.

On to “GGAGAAUUAGAAGUUUCUGTT against B930008I02Rik”, for which the z-score was inactive: 1.17.

As to GCCAACGCACAUAAUAAAGTT against Grim19, the z-score was inactive: 0.253.

For GGACUAAAUGGUCAAGAUUTT against Rbm8, the z-score is inactive: -3.1.

In the case of CGAAACGGAAGGUGGAGGUTT against Htatip, the z-score was inactive: -0.764.

For GGCAUCCUGUUGAAACUGATT against AI854408, the z-score was inactive: -0.949.

Regarding “GGGUUCAAGAUAUCAAGUATT against 4933434E20Rik”, the z-score was inactive: 0.755.

Take GGAGUCAACUUGUGAGGGUTT against Lrp8: the z-score was inactive: -0.166.

For the sequence CGACGGAGUCAGUUAAAACTT against Psmd12, the z-score is inactive: -3.52.

For “GCUGCCUCCUUAGGUGUUATT against A930018P22Rik”, the z-score was inactive: 1.33.

In the case of “GGGAGGAUAUUUUUUUGAATT against 9930013L23Rik”, the z-score is inactive: -0.438.

For the sequence GCAGUGUGAUGGGACUGUATT against Aga, the z-score was inactive: -0.434.

As to GCUGGUCUUUCAAGUCAAGTT against Stat5b, the z-score is inactive: 2.97.

For “GGUUACUAUGUGAAGAUUUTT against C130068O12Rik”, the z-score is inactive: 0.0787.

Consider CCAAGGGUUAAGUCUUCAUTT against Zranb1, for which the z-score is inactive: 0.899.

As to “GGUGAUAAAGGGCAAAUGATT against 0610009I22Rik”, the z-score was inactive: -0.634.

Consider GGAAGAAGCAGAAGAACAUTT against Rpl12, for which the z-score is inactive: -3.1.

On to GCUGAUUAAUGAAGAAGCUTT against Kpna6, for which the z-score is inactive: -0.422.

Regarding “CCUUCAAAUGUGGGAGUCCTT against 2310004L02Rik”, the z-score is inactive: -0.945.

Regarding GGUGAUGCGCCUGAAGGAUTT against Ntng2, the z-score was inactive: -0.669.

For GGUCAACCAGAAACUUUACTT against Acvr1, the z-score is inactive: -0.868.

On to GGAAAGAAACUUUCUCUUUTT against Cdkn2d, for which the z-score was inactive: -0.057.

Regarding GGUUGUGGCUGCUACUAUUTT against Pira1, the z-score was inactive: 0.276.

In the case of CGAUACCUUCGCCAAAAAGTT against Tbc1d1, the z-score was inactive: -0.582.

On to GGGCUCCAAUUUGCUACCATT against Grp, for which the z-score was inactive: 2.36.

For GGAUGAAGAUGCUGUCAGCTT against Arhgef3, the z-score was inactive: -1.11.

For GGCAGAGGCUGACUUCUACTT against Kctd11, the z-score is inactive: 0.39.

Turning to GCAAAUGUCUCUUCAGUGATT against Olfr885, the z-score is inactive: -0.338.

With “CCGACCAUCUGUGGAAAUATT against E130306M17Rik”, the z-score was inactive: 1.03.

Turning to “GGCCCUCCUCAAGACUCAUTT against 2810417J12Rik”, the z-score was inactive: -0.307.

Take GGGCCUAAAUGUGAAACACTT against Src: the z-score was inactive: -0.87.

With GGUCACAGAUAAGAAUGACTT against Cd96, the z-score was inactive: 0.663.

For GGUAUGGAGUGAAGUGACCTT against Mmp11, the z-score is inactive: 0.271.

For GGCUAACACUUAAAUUAGCTT against Atoh8, the z-score was inactive: 0.118.

With CCAUCUACCGGAAAAUAACTT against Cecr5, the z-score is inactive: -0.0915.

As to GGAGUUUCAGCAGUCGUGATT against Prkrip1, the z-score is inactive: 1.16.

Turning to “GGACCAUAAAGUGUUACUATT against D230019K20Rik”, the z-score is inactive: -1.24.

As for GAAAAAAAUCCGUUCCCUCTT against Mrpl33, the z-score is inactive: 0.246.

As to GGCUGAUUAGAAUACCUCCTT against Adra2b, the z-score is inactive: 0.511.

Consider GUUAUAGCGGCGAAGGUGUTT against BC049812, for which the z-score was inactive: -0.322.

Regarding GGCCAUUUUCAACAAGAACTT against BC017643, the z-score was inactive: 1.09.

For “GGUUCUGAUUUUUAGUGGUTT against E230019M04”, the z-score was inactive: -0.102.

On to “CGAUGACACUAUUAUGAGATT against B930007M17Rik”, for which the z-score is inactive: 0.387.

As for GGAUAGAGAGAGGUAGCAUTT against Lrrc15, the z-score was inactive: 0.131.

Turning to CCCUGAGGCAAAGAAAUGUTT against Msh3, the z-score is inactive: 0.439.

As for GCGAAACUACCGACAGUGUTT against Irf2, the z-score was inactive: -1.8.

As for “GGGAUUUUGUCAUCUAUUCTT against 4632412E09Rik”, the z-score was inactive: -1.69.

As for “GGCCCAAUUGUCGAUAUCCTT against 2300002M23Rik”, the z-score was inactive: 0.824.

For the sequence GGCAUUACGUCAUGUACUATT against Aes, the z-score is inactive: -0.0855.

As to CAGCAAUGACCUGAUGUUATT against Klk21, the z-score is inactive: -0.712.

Consider GGGUGAUAAAAUUCAGAUUTT against Gpr88, for which the z-score is inactive: 0.00429.

For the sequence GCAGUUGGGACAAGCCUUUTT against Als2cr3, the z-score was inactive: -0.815.

Take “CCAUGUUCAAGUCAAAACUTT against 9630046K23Rik”: the z-score was inactive: 0.706.

On to GGAGAAGUAUGAAAUAGCATT against Rad51, for which the z-score was inactive: -2.51.

GGUUUUUGUUGUAAUAGGCTT against Olfr915: the z-score is inactive: -0.232.

For “GGGAGAUGAACCUCUCAGATT against 0610038K03Rik”, the z-score is inactive: -0.243.

Take GCUGAUCAAAUUGGCCUGUTT against Olfr984: the z-score is inactive: -1.53.

As for CGACCUCCAGUAAUAACCUTT against Olfr310, the z-score is inactive: -1.95.

Take GGUGCCAUACCAUUUCCUATT against Olfr351: the z-score was inactive: 0.539.

Regarding GGAAAAUCUUUACAGAGCGTT against Zfp617, the z-score is inactive: 0.985.

For the sequence “GGAUACCAAUAGAACAAAGTT against C130032F08Rik”, the z-score was inactive: -0.403.

“GGUACUUUCCUUUCGAUGCTT against A030001H23Rik”: the z-score is inactive: 1.01.

Take GGUUGGUUCAGAUAAGUCCTT against AU040377: the z-score is inactive: 0.682.

For the sequence GGAAGAUGGUUUGUAGAUATT against Ddx56, the z-score is inactive: 0.0611.

Regarding GGAUGUUUUGGAGCCCUAGTT against Scml4, the z-score is inactive: -1.59.

Consider GAUCCUGCAUCUUUAGUGUTT against Ascl1, for which the z-score was inactive: -0.928.

In the case of GCCGAUUCAAUACUGUGACTT against Rnf149, the z-score is inactive: -0.608.

Take GGAAGAAUGUAAGUAUACCTT against Zfp96: the z-score is inactive: 1.92.

Consider GGGAUUGGCACUUUCCAAGTT against Akap7, for which the z-score was inactive: -0.776.

As to “GGAUUGGUUCAUGACCUGATT against 4921513B05Rik”, the z-score was inactive: -1.39.

GGAGGUGUUUUAUAUGAACTT against BC020077: the z-score was inactive: -0.246.

As for GGGUGAGUGUCGGAACUUUTT against Sema6b, the z-score is inactive: 0.213.

For GGGAGAUCUCUCACAGAUCTT against Gja10, the z-score is inactive: -1.95.

In the case of GGUUUUAAAGCAUCUUCGUTT against Pard6g, the z-score is inactive: 0.236.

Consider GGGAGACCAUUGUUCAACUTT against Stk23, for which the z-score was inactive: -0.0954.

As to GGAGGAAGUUGUAUAUUUUTT against Psmd10, the z-score is inactive: -0.658.

As to GGCAUAUAAGGACUUCUACTT against C5r1, the z-score was inactive: 0.224.

Consider GAUGGUGUCUAGUGAGAGCTT against Oxct2b, for which the z-score is inactive: 0.802.

“GGCUACUCAACCGAUAGUGTT against 2610039C10Rik”: the z-score is inactive: 0.329.

With “GGACGUAGAUUGGUACCUCTT against 2210018M11Rik”, the z-score is inactive: 0.178.

In the case of “CCCAUUGAACAGGAUGUUATT against 2310005O14Rik”, the z-score is inactive: 0.316.

On to GGAAGUGUGAACUUCAUCATT against Zdhhc6, for which the z-score was inactive: 1.18.

On to GCGAACAUCCCAACAACAGTT against Igfbp4, for which the z-score is inactive: -0.0551.

Consider GCUACUGAGUUAUAGAAAGTT against Olfr1316, for which the z-score is inactive: 0.323.

Regarding “GGAAAACUUACCUUCUUAATT against 2610020C11Rik”, the z-score is inactive: -1.23.

Take “GGAAGCCACCUUAACAUUATT against 1700012B18Rik”: the z-score was inactive: -0.0151.

Turning to CCACAGUAUCUUAAUGCAATT against Eif3s6, the z-score is inactive: -2.14.

Turning to GCCAUGCAAAUCGAUGGGUTT against Rora, the z-score is inactive: 0.641.

As for “GCUGGACUAAUCGACAGCATT against 5730559C18Rik”, the z-score is inactive: -0.0932.

On to “CCACAUCGAGGACUGGUAGTT against 1110049G11Rik”, for which the z-score is inactive: -0.141.

Turning to CCUAUCAUGUUAAAAACAGTT against Grem2, the z-score was inactive: 1.02.

With “GGCCAUUGCCAUUGUGUGUTT against 1700095N21Rik”, the z-score is inactive: 0.00528.

As to GGACUUGGAGUUUCGUAAATT against Lmnb1, the z-score is inactive: 3.07.

In the case of “GGUCAGCAGUUUUCUAACUTT against C130038G02Rik”, the z-score was inactive: -0.394.

Turning to GGACCACUAGACCUGAUAATT against Itgb1bp1, the z-score is inactive: 0.746.

Take “GCCUGUGUAUUACUUUUUUTT against 6720455I24Rik”: the z-score is inactive: -0.536.

Turning to GCGGGUGCUUUCUUGUUGUTT against Dfy, the z-score was inactive: -0.334.

Consider CGGACGACAUUACAAUUGATT against Nrxn2, for which the z-score was inactive: -1.02.

For the sequence GGCCUUAAUUAUGUCUUAGTT against Slc25a25, the z-score is inactive: -2.21.

In the case of “GGUUCCUAGUAUUAUGUACTT against 2010309E21Rik”, the z-score was inactive: 1.62.

Consider CUUUGGUAGGAAACCUCUUTT against Olfr1281, for which the z-score is inactive: 0.915.
